The series can be described thus: general procedure: solution-phase peptide synthesis; N,N'-dicyclohexylcarbodiimide / N-oxybenzotriazol.

* marks the point of attachment. Cbz = O=C(OCc1ccccc1)*; OBn = c1ccc(CO*)cc1

Take H-Ala-Glu-Asp-Leu (SEQ ID NO:1)-OH: the step yield (late stage modification step) was determined as 79%. For Cbz-AE(OBn)D(OBn)L-OBn, under “coupling step”, the step yield came out at 55%.
